# Source: PMC7819943, “Rice protein-binding microarrays: a tool to detect cis-acting elements near promoter regions in rice”
# Amino acid sequences for entries named in this document (tags omitted).
# UniProt Q0JBA9, entry or part of it: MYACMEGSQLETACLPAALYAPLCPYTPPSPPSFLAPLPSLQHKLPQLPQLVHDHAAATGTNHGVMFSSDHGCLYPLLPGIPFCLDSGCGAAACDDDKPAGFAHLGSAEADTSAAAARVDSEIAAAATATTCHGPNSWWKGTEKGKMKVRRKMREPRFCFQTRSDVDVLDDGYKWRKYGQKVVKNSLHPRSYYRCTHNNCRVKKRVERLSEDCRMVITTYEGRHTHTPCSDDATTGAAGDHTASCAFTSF
# This is one part of the list.
# Molecular target: OsWRKY34 (Oryza sativa, UniProt Q0JBA9 1-250)
# Test: protein-binding microarray (RPBM); PBS, 2% BSA, 51.3 ng/ul salmon testes DNA, 50 uM zinc acetate, 200 nM TF, 25 C, 1 h; high values mean tight binding
# Conditions: protein: recombinant; tags: N-terminal polyhistidine and DsRed monomer fusion (pET32a); label: CyDye5-dUTP incorporated in the synthesized complementary strand; 3' TTTTT single-stranded linker to array surface; dsDNA, one strand shown
# Procedure, shortened: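 Binding signal is reported as fluorescence intensity per feature (arbitrary units) from an Axon 4000B scanner. Incubation used 200 nM of each Ni–NTA-purified, N-terminally polyhistidine- and DsRed-fused transcription factor from E. coli BL21-CodonPlus on a double-stranded custom Agilent array for 1 h at 25 °C, with 50 µM zinc acetate in the buffer, followed by washing.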
row,Sequence,binding signal
1,ACGTACCAGCTCACTATCTCCATCACAAACGTTGAAAACGCGGAGTCACCTAGTGCAG,9020 fluorescence intensity (a.u.)
2,GTACTCCCTCTGACCCTAAATATTTGACGTCGTTGACTTTCGGAGTCACCTAGTGCAG,16300 fluorescence intensity (a.u.)
3,CCGCCTCCGCCTCCGCATCTACGCCTGATTGATCCCCACCCGGAGTCACCTAGTGCAG,8560 fluorescence intensity (a.u.)
4,GCTTGGGAATTGGGATGCTGGGAGAAACAAAAATAATAATCGGAGTCACCTAGTGCAG,8940 fluorescence intensity (a.u.)
5,ATGGAGAGTTGCATTCATATCCTGTACCTTTGTTTATCTACGGAGTCACCTAGTGCAG,10800 fluorescence intensity (a.u.)
6,TTGTACCTCCATATAACCCAAGCAGTTAGCTAGCACTCAGCGGAGTCACCTAGTGCAG,8320 fluorescence intensity (a.u.)
7,TTGAGATTCCTGCTGGGGCTGGGGTTGGGTTGAGATTCCCCGGAGTCACCTAGTGCAG,14600 fluorescence intensity (a.u.)
8,CACCGATTTCTCCTCATTGAGCGAGCCTTGTGCCAACCTTCGGAGTCACCTAGTGCAG,10500 fluorescence intensity (a.u.)
9,GTTTTGGCCCACTCTATTTCCAGTTTAGAGAGCCCAAATTCGGAGTCACCTAGTGCAG,8500 fluorescence intensity (a.u.)
10,AACCTCCATCACCGGTGGACTCCACCCTATCCTCTGCAGCCGGAGTCACCTAGTGCAG,9570 fluorescence intensity (a.u.)
11,CTGCGCAATGCCTGCTGCCGTGCTCCGTCTCGAACTCTCGCGGAGTCACCTAGTGCAG,8040 fluorescence intensity (a.u.)
12,GACCCGGCGGATCCGAGCCATCTGACATCCCCACTACTTCCGGAGTCACCTAGTGCAG,8830 fluorescence intensity (a.u.)
13,GGCGGTGGCGGCGGGGAGTTGGTGCGAGGGCGGCGACGCTCGGAGTCACCTAGTGCAG,9370 fluorescence intensity (a.u.)
14,TATTATATTGCAATTTCCATCCATCCGTTATATATACTTTCGGAGTCACCTAGTGCAG,13500 fluorescence intensity (a.u.)
15,GTATAGTCAGCTGGTTATGCAGTGCATATCTATCTCATACCGGAGTCACCTAGTGCAG,9200 fluorescence intensity (a.u.)
16,GAAAAAGTCAACGGCGTCATCTATTAAAAACGGGACTAGTCGGAGTCACCTAGTGCAG,8070 fluorescence intensity (a.u.)
17,CTTCAAACTTTTACTTTTTCTATCACATCAAAACTTTCTTCGGAGTCACCTAGTGCAG,8690 fluorescence intensity (a.u.)
18,TTCGTCTCCGGTCTTCGTTTTATCCCCTTCCTTCGTCTTCCGGAGTCACCTAGTGCAG,10200 fluorescence intensity (a.u.)
19,CGCAGCCACGTGCATTCTTACGTACTCATCGGCGCATCGGCGGAGTCACCTAGTGCAG,9030 fluorescence intensity (a.u.)
20,ATATATATATATATATATATATATATATATATATCTCCTACGGAGTCACCTAGTGCAG,9040 fluorescence intensity (a.u.)
21,CCTTTTTTTTGGCGCAATATTTTTTTCTGTTTTTTTCTTTCGGAGTCACCTAGTGCAG,8030 fluorescence intensity (a.u.)
22,GTCCTGTCAAGAGCGTGCATTATTGATCCATTTACCTGAACGGAGTCACCTAGTGCAG,8370 fluorescence intensity (a.u.)
23,AGATTTTGTTGACTGTTGTTGGCTCTTGCCTTTTGTGTGACGGAGTCACCTAGTGCAG,9740 fluorescence intensity (a.u.)
24,TTAATTATTATAATTGTTTTACTACTTTCAACTACTGTTTCGGAGTCACCTAGTGCAG,8620 fluorescence intensity (a.u.)
25,CACAAACATGCAACTTAAAATTCACTTTACATGTCACACCCGGAGTCACCTAGTGCAG,8130 fluorescence intensity (a.u.)
26,CTCTCTCCGGCACACAAAACGATGTTCGTATTAATACGTACGGAGTCACCTAGTGCAG,8560 fluorescence intensity (a.u.)
27,TTGGTCGGCTTCCGTTCCTTGGGTCGTCGTCATCGCCGTCCGGAGTCACCTAGTGCAG,8250 fluorescence intensity (a.u.)

row,Sequence,binding signal
1,AGAGGGGAGTGGGGTGGTAATTTAAACTTTTTCTAAAAATCGGAGTCACCTAGTGCAG,13800 fluorescence intensity (a.u.)
2,GCGCGCGCGTGGTCCATACCCACCTTTTTTGTCGCGTCGCCGGAGTCACCTAGTGCAG,10500 fluorescence intensity (a.u.)
3,AAATTGTTTCCCCGGATTTCTCATGCTAACGTCTAACCTCCGGAGTCACCTAGTGCAG,8640 fluorescence intensity (a.u.)
4,TTTTCTTTTTGCAATCATTACAACTAATTCTTCTTCTTCTCGGAGTCACCTAGTGCAG,8770 fluorescence intensity (a.u.)
5,GCAGAAATTGCATTGGTTCTAATTGATATCCCAGAACACACGGAGTCACCTAGTGCAG,9880 fluorescence intensity (a.u.)
6,TCCTATATGGTGGACACCAGCTCTACAATGGTTCTCCTACCGGAGTCACCTAGTGCAG,9720 fluorescence intensity (a.u.)
7,ACTATATATATACACTACGGTTGACAAAGACATCCCAACACGGAGTCACCTAGTGCAG,8200 fluorescence intensity (a.u.)
8,CTGGGTTATCGAAATCTCACATCCTTCATTTTTTTATGTTCGGAGTCACCTAGTGCAG,10700 fluorescence intensity (a.u.)
9,AGTATTTAGGTAGCTTGTTTTTTCTTTTTTTTTAAGAAACCGGAGTCACCTAGTGCAG,11300 fluorescence intensity (a.u.)
10,GACACATGTGATTTTTTTGACAAATGTTTGACTATTTGTTCGGAGTCACCTAGTGCAG,8120 fluorescence intensity (a.u.)
11,TAACTGTGTGTGGCCAACCTACCTAGAATCTTTCTTGATCCGGAGTCACCTAGTGCAG,10200 fluorescence intensity (a.u.)
12,AATACATCATTTTTTTCATTTTGTTGAGACGCTGAGTTGCCGGAGTCACCTAGTGCAG,8900 fluorescence intensity (a.u.)
13,ACCCCACCACCTCGACATTATATATCATCGGAGTTTTCTACGGAGTCACCTAGTGCAG,11200 fluorescence intensity (a.u.)
14,ACTAAGCTGCGCCTGTCTACTTGTCAAGCTCTACAAAACCCGGAGTCACCTAGTGCAG,10100 fluorescence intensity (a.u.)
15,ATTATCCGCGGGCCTTCTGTTTGTTGCTGGGCCCTGGGCCCGGAGTCACCTAGTGCAG,9180 fluorescence intensity (a.u.)
16,CTCGCCTCGTAGCCGCCGCCGCCGCCTTGTCGCCCACTGCCGGAGTCACCTAGTGCAG,9590 fluorescence intensity (a.u.)
17,CTCAACAGCAACAGCAACAACACACTTACCAAATTTGTGTCGGAGTCACCTAGTGCAG,8240 fluorescence intensity (a.u.)
18,ATCCGAAACAATTCGCTTCTCATCCGCACCCGTACATTATCGGAGTCACCTAGTGCAG,10600 fluorescence intensity (a.u.)
19,TTGAGTTTTTGTTTGCACTCTTTGATCCCTCGTCTTATTCCGGAGTCACCTAGTGCAG,8390 fluorescence intensity (a.u.)
20,ATATATATATATATATATATATATATATATATTGGCAATTCGGAGTCACCTAGTGCAG,10300 fluorescence intensity (a.u.)
21,AATAATAACATAGCTAAAGCATGTATACCTTGCAGTACTTCGGAGTCACCTAGTGCAG,8520 fluorescence intensity (a.u.)
22,CTCCTCTTACAATATTGCTTATTTCTAATTTCGAATTTCACGGAGTCACCTAGTGCAG,8980 fluorescence intensity (a.u.)
23,ATATAGATATACTTTGATCTTACTCCACCACTATTAAAATCGGAGTCACCTAGTGCAG,8830 fluorescence intensity (a.u.)
24,GATTAATTACCTACCTGCTTACGTCCTCCGTGCTTAAGCACGGAGTCACCTAGTGCAG,8210 fluorescence intensity (a.u.)
25,TTGTCTATGACCCGATCTTCTACAAGCCGTAGTTCCGCCTCGGAGTCACCTAGTGCAG,8540 fluorescence intensity (a.u.)
26,GAGCACACTACTACTCCTACTCCGGTCCAGCCACTGCACACGGAGTCACCTAGTGCAG,8320 fluorescence intensity (a.u.)
27,CTGTGGCCGTTTCTTGCGGCGTGGTGAGGTGAGGGGAGGGCGGAGTCACCTAGTGCAG,10600 fluorescence intensity (a.u.)

# Another view of part of the listing above.
row	Sequence	binding signal
13	ACCCCACCACCTCGACATTATATATCATCGGAGTTTTCTACGGAGTCACCTAGTGCAG	11200 fluorescence intensity (a.u.)
14	ACTAAGCTGCGCCTGTCTACTTGTCAAGCTCTACAAAACCCGGAGTCACCTAGTGCAG	10100 fluorescence intensity (a.u.)
15	ATTATCCGCGGGCCTTCTGTTTGTTGCTGGGCCCTGGGCCCGGAGTCACCTAGTGCAG	9180 fluorescence intensity (a.u.)
